According to publication PMC7782499, “Progerinin, an optimized progerin-lamin A binding inhibitor, ameliorates premature senescence phenotypes of Hutchinson-Gilford progeria syndrome” (Communications Biology, 2021):
“And” between values parts separate entries of the source, which are not always exact repeats. Equal values may be shown once. Further values from the same series stand in other lists.

Tested on: Lmna G609G/G609G mouse
Test: Body weight of Lmna G609G/G609G mice (ratio, week 4 = 1)
Format: in vivo
Excerpt: Fig. 3 In vivo favorable effect of SLC-D011. A Gross morphology of Lmna^G609G/G609G mice (10 weeks old) was ameliorated after injection with SLC-D011. At the same age, the experimental group (D011) of mice were larger than vehicle-injected control (Con) subjects regardless of gender. B, C SLC-D011 increases body weight B and extends life span C of Lmna^G609G/G609G progeria model mouse (Con: n = 8; SLC-D011: n = 8). Compared with 14.8 weeks of average (ave) life span with maximum (max) life span of 15.5 weeks, 20 mg/kg of intraperitoneal (i.p) injection (twice a week) of SLC-D011 could extend the life span upto 19 weeks (max = 21 weeks). Lmna^G609G/G609G mice were injected with SLC-D011 from age of 5-week old, *p < 0.05. D Gross morphology of SLC-D011 injected Lmna^G609G/+ mouse. […] E SLC-D011 increases body weights of Lmna^G609G/+ mice (Con: n = 10; SLC-D011: n = 11), *p < 0.05. F Favorable effect of SLC-D011 on life span of Lmna^G609G/+ mice. Compared with vehicle-injected control group (ave = 46.7 weeks and max = 48 weeks), SLC-D011 treatment obviously extended the average life span to 63 weeks (max = 64 weeks). The injection was started from 32 weeks old, **p < 0.001. “Con” means vehicle (a solvent composed of DMSO and PBS)-injected mouse group. TEXT PRINTED IN THE PICTURE: (C) D011: Kaplan-Meier survival curve in Lmna^G609G/G609G: Ave=19; Kaplan-Meier survival curve in Lmna^G609G/G609G: Max=21 | (F) D011: Kaplan-Meier survival curve in Lmna^G609G/+: Ave=63; Kaplan-Meier survival curve in Lmna^G609G/+: Max=64 DOUBTS OF THE COPYIST ABOUT THIS PICTURE: Panels C and F: the Ave/Max labels are not printed with a group name. They are assigned to D011 (solid curve) or Con (dashed curve) only by their position beside the curves. / Panel C Ave=14.8, Max=15.5 and panel F Ave=46.7, Max=48 stand beside the dashed Con curve. They are left out because Con is the control group, not a substance. / No unit is printed with the Ave/Max values. Only the axis reads Age (weeks).
Fig. 4 Oral administration of SLC-D011 suppresses premature aging features. A Gross morphology of SLC-D011-treated (D011) mice at 8 weeks old. Body size of treated mouse was apparently larger than that of the untreated control (Con) mouse. B Oral administration of SLC-D011 increases body weights of Lmna^G609G/G609G mice. Compared with untreated control group, body weight of treated mouse was increased by ~35%, *p < 0.05. C Oral administration of SLC-D011 extends the life span of Lmna^G609G/G609G mouse. SLC-D011 in monoolein-based solution was treated by oral gavage (50 mg/kg, daily) from 5 weeks old. […] E Grip test of Lmna^G609G/+ mice at 41-week-old was performed after administration of SLC-D011 for 6 weeks. The test was repeated 10 times for each mouse (n > 4), **p < 0.001. Data are presented as mean ± SD. F Electrocardiographic analysis of Lmna^G609G/+ mice (untreated: n = 4; SLC-D011: n = 4) and Lmna^+/+ mice (n = 3) after treatment with SLC-D011 for 6 weeks (unpaired t test). Heart rate is shown as beats per minute (bpm). G Dental abnormalities in Lmna^G609G/+ mice (untreated: n = 4; SLC-D011: n = 5) and Lmna^+/+ mice (n = 4). […] Lower incisors of Lmna^G609G transgenic mice grow toward the palate because of malocclusion. Oral administration of SLC-D011 for 6 weeks alleviates dental abnormalities. H Anti-aging effects of single treatment of SLC-D011 or lonafarnib were measured in HGPS patients-derived cells (AG11513, AG03199, AG11498, and AG03198, Coriell Cell Repositories). Single treatment of SLC-D011, compared to lonafarnib, reduced the expression of progerin but induced the expression of H3K9me3 and cyclin B1 in HGPS cells more effectively. HGPS patients-derived cells were treated with SLC-D011 (500 nM) or lonafarnib (500 nM) for 3 days. I Scheme of interaction between lamin A and progerin. SLC-D011 interrupts the interaction between lamin A and progerin through direct binding to the C-terminal region of progerin. […]

CC1(C)Oc2cc3oc(=O)ccc3cc2C[C@@H]1OC/C=C/c1ccccc1 [SLC-D011] was tested, and the body weight (IP injection, after week 5) was 1.154 and 1.077 and 1.156, the body weight (IP injection, after week 7) was 1.385 and 1.462 and 1.337 and the body weight (IP injection, after week 8) was 1.538 and 1.333 and 1.357. For the same compound, the body weight (IP injection, after week 9) was 1.462 and 1.333 and 1.317, the body weight (IP injection, after week 10) was 1.385 and 1.265 and the body weight (IP injection, after week 13) was 1.385 and 1.231 and 1.182 and 1.115. For the same compound, the body weight (IP injection, after week 15) was 1.231 and 1.077 and 1.083 and 1.008, the body weight (IP injection, after week 16) was 1.231 and 0.9091 and 0.972 and the body weight (IP injection, after week 17) was 1.077 and 0.9231 and 0.9091 and 0.8913. For the same compound, the body weight (IP injection, column after week 4) was 1.042, the body weight (IP injection, column after week 6) was 1.231 and 1.247 and the body weight (IP injection, column after week 11) was 1.462 and 1.385 and 1.273 and 1.256. For the same compound, the body weight (IP injection, column after week 12) was 1.385 and 1.308 and 1.174, the body weight (IP injection, column after week 14) was 1.308 and 1.154 and 1.143 and 1.067 and the body weight (IP injection, column after week 18) was 0.9231 and 0.7137. The body weight (IP injection, column after week 19) was 0.9231 and 0.6058, the body weight (IP injection, week 5) was 1.077 and 1.104 and the body weight (IP injection, week 6) was 1.231 and 1.217. The body weight (IP injection, week 7) was 1.308 (2×) and 1.385, the body weight (IP injection, week 8) was 1.538 and 1.367 and the body weight (IP injection, week 10) was 1.462 and 1.333 and 1.307. For the same compound, the body weight (IP injection, week 11) was 1.462 and 1.273 and 1.276, the body weight (IP injection, week 12) was 1.385 and 1.273 and 1.206 and the body weight (IP injection, week 13) was 1.308 and 1.146. The body weight (IP injection, week 15) was 1.231 and 1.154 and 1.143 and 1.048, the body weight (IP injection, week 16) was 1.154 and 1.077 and 1.083 and 0.895 and the body weight (IP injection, week 17) was 1.154 and 0.9231 and 0.9091 and 1 and 0.9262. For the same compound, the body weight (IP injection, week 18) was 1.077 and 0.8462 and 0.9091 and 0.7434, the body weight (IP injection, week 19) was 0.9231 and 0.7692 and 0.75 and 0.6551 and the body weight (IP injection, week 20) was 0.8462 and 0.75 and 0.5321. The body weight (oral administration, after week 8) was 1.273 and 1.455 and 1.385 and 1.417 and 1.545 and 1.636 and 1.444, the body weight (oral administration, after week 10) was 1.182 and 1.455 and 1.385 and 1.417 and 1.636 and 1.444 and the body weight (oral administration, after week 16) was 1.182 and 1.364 and 1.077 and 1.333 and 1.455 and 1.263 and 1.417 and 1.318. For the same compound, the body weight (oral administration, column after week 4) was 1.091 and 1.077 and 1.083 and 1.182 and 1.098, the body weight (oral administration, column after week 6) was 1.182 and 1.273 and 1.154 and 1.25 and 1.364 and 1.455 and 1.263 and the body weight (oral administration, column after week 12) was 1.273 and 1.455 and 1.385 and 1.417 and 1.545 and 1.432. For the same compound, the body weight (oral administration, column after week 14) was 1.273 and 1.455 and 1.308 and 1.333 and 1.263 and 1.417 and 1.37, the body weight (oral administration, column after week 18) was 1 and 1.273 and 1.25 and 1.364 and 1.091 and 1.333 and 1.243 and the body weight (oral administration, column after week 20) was 0.9091 and 1.182 and 1.091 and 1.167 and 1.273 and 1 and 1.146. The body weight (oral administration, column after week 22) was 0.8182 and 1 and 0.9091 and 1.083 and 1.091 and 1.182 and 1.01, the body weight (oral administration, column after week 24) was 0.9167 and 0.8182 and 1.091 and 0.6656 and the body weight (oral administration, column after week 25) was 0.75 and 0.8182 and 0.5795. For the same compound, the body weight (oral administration, week 6) was 1.091 and 1.182 and 1.077 and 1.167 and 1.273 and 1.364 and 1.176, the body weight (oral administration, week 8) was 1.182 and 1.364 and 1.231 and 1.333 and 1.455 and 1.545 and 1.338 and the body weight (oral administration, week 10) was 1.182 and 1.455 and 1.308 and 1.5 and 1.545 and 1.727 and 1.435. The body weight (oral administration, week 12) was 1.273 and 1.455 and 1.308 and 1.417 and 1.636 and 1.436, the body weight (oral administration, week 14) was 1.273 and 1.545 and 1.308 and 1.417 and 1.455 and 1.424 and the body weight (oral administration, week 16) was 1.182 and 1.364 and 1.231 and 1.333 and 1.455 and 1.263 and 1.417 and 1.337. For the same compound, the body weight (oral administration, week 18) was 1 and 1.364 and 1.077 and 1.333 and 1.182 and 1.417 and 1.262, the body weight (oral administration, week 20) was 0.9091 and 1.273 and 1.091 and 1.25 and 1.179 and the body weight (oral administration, week 22) was 0.9091 and 1.182 and 0.9167 and 1.167 and 1.091 and 1 and 1.273 and 1.09. For the same compound, the body weight (oral administration, week 24) was 0.9091 and 0.8462 and 1.083 and 0.9167 and 1.182 and 0.8182 and 0.8671 and the body weight (oral administration, week 25) was 0.8333 and 0.75 and 0.8182 and 0.6439.
